# The other results are listed elsewhere or left out.
# Amino acid sequences for entries named in this document (tags omitted). A change or cut given only in a name is not applied to a line headed by its entry.
# UniProt Q9P2X3: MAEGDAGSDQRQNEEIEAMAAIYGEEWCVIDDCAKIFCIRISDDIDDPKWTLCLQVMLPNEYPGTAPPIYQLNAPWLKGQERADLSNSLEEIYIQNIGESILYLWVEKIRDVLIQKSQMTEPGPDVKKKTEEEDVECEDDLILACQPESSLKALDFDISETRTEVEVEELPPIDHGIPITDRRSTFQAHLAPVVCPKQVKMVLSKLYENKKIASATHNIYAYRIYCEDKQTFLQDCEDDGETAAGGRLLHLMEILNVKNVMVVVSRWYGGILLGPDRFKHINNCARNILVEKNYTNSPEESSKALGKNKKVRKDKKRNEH
# UniProt Q9H0C8: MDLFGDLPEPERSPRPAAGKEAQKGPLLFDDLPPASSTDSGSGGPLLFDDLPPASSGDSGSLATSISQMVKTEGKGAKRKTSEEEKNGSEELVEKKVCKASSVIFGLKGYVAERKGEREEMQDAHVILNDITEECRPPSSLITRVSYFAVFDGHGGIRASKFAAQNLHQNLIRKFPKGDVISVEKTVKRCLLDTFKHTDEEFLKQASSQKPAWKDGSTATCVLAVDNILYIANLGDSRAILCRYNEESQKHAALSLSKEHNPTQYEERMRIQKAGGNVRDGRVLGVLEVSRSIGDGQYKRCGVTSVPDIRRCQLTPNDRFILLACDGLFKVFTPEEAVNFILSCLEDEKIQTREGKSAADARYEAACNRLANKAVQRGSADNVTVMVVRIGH
# UniProt Q12906, whole entry, looked up: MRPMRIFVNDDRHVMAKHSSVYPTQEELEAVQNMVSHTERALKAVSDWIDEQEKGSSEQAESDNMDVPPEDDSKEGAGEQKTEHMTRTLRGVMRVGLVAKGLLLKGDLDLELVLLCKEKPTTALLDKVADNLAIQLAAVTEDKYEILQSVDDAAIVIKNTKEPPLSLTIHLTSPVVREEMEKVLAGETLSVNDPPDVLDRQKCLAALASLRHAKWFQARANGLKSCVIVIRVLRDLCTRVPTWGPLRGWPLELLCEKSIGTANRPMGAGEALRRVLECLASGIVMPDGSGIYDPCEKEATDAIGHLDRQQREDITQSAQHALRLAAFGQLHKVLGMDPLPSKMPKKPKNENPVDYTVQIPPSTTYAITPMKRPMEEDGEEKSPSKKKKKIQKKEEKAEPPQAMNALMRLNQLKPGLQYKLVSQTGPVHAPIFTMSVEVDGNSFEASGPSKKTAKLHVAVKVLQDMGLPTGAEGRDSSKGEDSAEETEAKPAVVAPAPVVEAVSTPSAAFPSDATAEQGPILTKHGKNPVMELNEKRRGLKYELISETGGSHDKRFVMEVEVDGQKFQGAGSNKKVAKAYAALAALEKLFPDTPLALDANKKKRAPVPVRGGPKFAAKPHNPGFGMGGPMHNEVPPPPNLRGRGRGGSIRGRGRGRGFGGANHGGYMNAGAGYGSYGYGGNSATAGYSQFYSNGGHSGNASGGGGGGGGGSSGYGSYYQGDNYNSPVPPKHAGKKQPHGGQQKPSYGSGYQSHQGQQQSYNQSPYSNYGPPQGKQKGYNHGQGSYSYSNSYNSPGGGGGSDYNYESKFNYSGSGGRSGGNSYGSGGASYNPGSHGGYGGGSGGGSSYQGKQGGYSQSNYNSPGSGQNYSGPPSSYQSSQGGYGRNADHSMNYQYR
# UniProt P01876, whole entry, looked up: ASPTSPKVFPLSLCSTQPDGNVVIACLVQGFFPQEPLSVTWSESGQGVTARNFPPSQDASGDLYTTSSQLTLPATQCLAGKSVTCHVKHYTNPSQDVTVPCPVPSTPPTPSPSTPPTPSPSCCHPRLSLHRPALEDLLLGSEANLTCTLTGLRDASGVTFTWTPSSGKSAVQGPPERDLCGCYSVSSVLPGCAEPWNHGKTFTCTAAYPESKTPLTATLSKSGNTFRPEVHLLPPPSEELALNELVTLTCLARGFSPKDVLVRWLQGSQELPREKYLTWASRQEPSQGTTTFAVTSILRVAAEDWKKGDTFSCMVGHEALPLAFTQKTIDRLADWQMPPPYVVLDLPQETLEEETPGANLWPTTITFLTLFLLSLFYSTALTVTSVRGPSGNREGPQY
# UniProt Q96FT9: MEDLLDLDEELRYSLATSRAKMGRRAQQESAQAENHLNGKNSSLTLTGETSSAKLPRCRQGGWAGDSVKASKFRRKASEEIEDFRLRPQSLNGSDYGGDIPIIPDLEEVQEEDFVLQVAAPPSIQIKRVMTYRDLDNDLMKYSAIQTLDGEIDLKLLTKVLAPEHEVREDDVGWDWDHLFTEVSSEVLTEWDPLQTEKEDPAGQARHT
# UniProt O43837: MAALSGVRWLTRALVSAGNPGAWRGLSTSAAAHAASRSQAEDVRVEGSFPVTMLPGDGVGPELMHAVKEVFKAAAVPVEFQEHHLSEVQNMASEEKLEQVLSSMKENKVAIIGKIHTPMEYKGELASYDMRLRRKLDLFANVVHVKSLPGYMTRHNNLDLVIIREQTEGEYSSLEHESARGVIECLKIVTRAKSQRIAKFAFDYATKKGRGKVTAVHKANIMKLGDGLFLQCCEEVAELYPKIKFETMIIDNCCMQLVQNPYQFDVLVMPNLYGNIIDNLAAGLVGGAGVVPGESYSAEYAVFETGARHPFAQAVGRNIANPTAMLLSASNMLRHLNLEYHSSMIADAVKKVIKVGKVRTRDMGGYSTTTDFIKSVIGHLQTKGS
# UniProt Q9NVM9, whole entry, looked up: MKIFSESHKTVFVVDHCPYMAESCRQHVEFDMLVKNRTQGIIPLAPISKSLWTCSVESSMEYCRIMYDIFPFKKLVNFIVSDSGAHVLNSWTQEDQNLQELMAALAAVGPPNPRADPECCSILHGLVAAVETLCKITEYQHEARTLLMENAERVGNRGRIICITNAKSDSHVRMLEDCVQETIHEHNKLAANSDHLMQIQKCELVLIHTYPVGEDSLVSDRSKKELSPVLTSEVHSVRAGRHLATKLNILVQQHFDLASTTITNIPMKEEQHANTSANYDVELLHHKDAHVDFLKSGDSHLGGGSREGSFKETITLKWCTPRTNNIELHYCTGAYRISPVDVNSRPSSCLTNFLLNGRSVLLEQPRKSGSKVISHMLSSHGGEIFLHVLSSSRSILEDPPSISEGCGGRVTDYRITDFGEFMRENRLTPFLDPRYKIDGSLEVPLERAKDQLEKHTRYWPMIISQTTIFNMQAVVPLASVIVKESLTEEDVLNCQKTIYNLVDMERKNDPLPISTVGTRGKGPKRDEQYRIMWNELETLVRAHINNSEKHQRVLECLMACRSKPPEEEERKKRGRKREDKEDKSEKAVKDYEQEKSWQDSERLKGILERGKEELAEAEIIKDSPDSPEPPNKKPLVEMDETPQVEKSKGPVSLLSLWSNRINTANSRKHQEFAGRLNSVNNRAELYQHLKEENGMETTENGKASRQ
# UniProt O14732: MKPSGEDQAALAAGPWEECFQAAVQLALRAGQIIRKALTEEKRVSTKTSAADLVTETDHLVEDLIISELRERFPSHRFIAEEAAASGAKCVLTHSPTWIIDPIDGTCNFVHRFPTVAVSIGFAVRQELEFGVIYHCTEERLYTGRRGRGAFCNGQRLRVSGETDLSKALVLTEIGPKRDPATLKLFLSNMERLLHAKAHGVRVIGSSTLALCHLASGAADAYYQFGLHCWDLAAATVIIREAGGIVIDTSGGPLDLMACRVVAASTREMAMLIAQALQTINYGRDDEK
# UniProt Q13478: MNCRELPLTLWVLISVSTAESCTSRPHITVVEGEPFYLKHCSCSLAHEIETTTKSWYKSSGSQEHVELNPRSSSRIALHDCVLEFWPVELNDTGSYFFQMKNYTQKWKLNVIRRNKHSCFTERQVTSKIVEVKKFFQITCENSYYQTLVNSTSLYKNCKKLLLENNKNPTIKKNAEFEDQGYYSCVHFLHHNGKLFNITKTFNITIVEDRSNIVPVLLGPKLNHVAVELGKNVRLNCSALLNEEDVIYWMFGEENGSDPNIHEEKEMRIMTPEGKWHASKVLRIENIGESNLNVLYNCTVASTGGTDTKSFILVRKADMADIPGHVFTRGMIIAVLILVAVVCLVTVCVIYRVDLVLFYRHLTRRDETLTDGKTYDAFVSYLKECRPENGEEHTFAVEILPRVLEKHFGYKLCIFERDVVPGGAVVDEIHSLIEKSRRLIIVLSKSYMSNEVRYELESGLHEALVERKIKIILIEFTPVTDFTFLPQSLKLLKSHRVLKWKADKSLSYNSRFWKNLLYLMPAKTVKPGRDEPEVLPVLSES
# UniProt Q14116, whole entry, looked up: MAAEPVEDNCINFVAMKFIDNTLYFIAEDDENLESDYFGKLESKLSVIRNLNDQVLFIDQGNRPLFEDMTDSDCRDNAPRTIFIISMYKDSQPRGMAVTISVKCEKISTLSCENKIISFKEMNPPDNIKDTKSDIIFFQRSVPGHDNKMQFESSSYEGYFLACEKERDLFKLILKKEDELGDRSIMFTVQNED
# UniProt P20839, whole entry, looked up: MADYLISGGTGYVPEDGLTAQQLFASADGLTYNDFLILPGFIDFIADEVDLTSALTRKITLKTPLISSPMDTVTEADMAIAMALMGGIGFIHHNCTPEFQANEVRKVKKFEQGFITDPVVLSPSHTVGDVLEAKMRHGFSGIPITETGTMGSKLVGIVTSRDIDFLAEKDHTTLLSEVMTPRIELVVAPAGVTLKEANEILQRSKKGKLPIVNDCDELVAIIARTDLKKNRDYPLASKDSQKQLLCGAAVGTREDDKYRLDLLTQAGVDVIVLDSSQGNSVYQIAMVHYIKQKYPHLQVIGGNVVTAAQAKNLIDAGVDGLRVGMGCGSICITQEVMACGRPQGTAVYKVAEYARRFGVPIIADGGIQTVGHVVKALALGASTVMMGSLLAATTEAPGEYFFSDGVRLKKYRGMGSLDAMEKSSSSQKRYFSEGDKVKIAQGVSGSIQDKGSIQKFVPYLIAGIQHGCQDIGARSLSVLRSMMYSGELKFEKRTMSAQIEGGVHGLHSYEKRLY
# UniProt O43464: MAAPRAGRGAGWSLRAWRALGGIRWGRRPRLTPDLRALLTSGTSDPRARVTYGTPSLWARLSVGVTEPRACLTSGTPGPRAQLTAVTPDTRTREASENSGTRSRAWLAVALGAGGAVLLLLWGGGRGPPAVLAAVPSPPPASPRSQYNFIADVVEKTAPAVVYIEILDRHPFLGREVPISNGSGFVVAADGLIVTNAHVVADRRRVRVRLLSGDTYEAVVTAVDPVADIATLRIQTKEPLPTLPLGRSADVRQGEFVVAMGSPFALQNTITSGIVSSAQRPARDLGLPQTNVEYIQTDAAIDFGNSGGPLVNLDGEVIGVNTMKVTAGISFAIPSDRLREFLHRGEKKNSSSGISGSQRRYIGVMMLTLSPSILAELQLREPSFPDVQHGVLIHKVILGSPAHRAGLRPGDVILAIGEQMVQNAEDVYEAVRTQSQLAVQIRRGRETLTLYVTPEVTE
# UniProt O00458: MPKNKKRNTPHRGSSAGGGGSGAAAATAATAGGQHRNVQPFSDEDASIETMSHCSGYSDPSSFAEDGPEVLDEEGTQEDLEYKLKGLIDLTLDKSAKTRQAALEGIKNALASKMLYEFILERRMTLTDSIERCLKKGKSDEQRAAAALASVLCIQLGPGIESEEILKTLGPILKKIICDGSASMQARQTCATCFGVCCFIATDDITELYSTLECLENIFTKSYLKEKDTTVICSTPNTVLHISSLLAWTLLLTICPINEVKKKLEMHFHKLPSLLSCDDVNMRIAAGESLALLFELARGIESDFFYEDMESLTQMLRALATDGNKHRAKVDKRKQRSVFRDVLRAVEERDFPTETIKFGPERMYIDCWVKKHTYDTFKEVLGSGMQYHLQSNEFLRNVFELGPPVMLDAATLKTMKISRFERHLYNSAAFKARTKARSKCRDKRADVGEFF
# UniProt Q9NX55: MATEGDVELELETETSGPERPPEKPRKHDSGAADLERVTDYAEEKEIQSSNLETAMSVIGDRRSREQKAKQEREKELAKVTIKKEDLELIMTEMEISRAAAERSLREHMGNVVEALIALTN
# UniProt P13598: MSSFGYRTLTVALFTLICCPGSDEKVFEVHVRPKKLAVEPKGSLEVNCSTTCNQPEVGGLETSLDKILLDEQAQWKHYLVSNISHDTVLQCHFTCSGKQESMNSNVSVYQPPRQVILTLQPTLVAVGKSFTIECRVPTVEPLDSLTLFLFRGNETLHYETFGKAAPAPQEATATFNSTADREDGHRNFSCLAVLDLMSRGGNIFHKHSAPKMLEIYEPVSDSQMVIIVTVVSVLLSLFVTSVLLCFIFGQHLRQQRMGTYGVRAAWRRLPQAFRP
# UniProt P50213: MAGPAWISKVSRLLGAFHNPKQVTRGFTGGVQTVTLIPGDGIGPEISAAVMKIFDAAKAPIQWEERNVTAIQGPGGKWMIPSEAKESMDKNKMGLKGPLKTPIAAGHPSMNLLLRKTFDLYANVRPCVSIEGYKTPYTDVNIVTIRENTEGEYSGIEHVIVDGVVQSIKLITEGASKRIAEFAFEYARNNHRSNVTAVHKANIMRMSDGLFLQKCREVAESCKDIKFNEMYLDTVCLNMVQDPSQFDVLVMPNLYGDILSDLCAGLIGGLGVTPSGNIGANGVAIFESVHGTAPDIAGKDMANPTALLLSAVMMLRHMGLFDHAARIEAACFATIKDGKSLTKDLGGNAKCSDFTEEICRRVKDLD
# What was measured:
# Experiment in all cases: log2 fold change, soluble protein after heating vs DMSO (PISA); higher = thermal stabilisation; K562 lysate, 10 uM; active = over 0.2 and 3.5 SD of the protein, either way, in both replicates (recomputed)
# [1] = compound: NCC(=O)Nc1ccc(-n2nc(C(F)(F)F)cc2-c2ccc3c(ccc4ccccc43)c2)cc1
# In short: (§1)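 K562 pellets were dounce-homogenised in PBS pH 7.4 containing 1 mM MgCl2, and the crude extract, at 1 mg/mL protein, was exposed to 10 μM compound for 30 min. Aliquots were heated for 3 min across 48°C-58°C, pooled, brought to 0.5% NP-40 at 4°C and spun at 21,000xg for 90 min, with the supernatant taken as soluble protein. TMTpro 16plex LC-MS/MS with equalised channel sums quantified that protein. Values are log-two fold changes in thermal stability relative to solvent controls, taken from duplicates.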
# vorinostat = compound: O=C(CCCCCCC(=O)Nc1ccccc1)NO [vorinostat]
# In short: as §1
# silmitasertib = compound: O=C(O)c1ccc2c(c1)nc(Nc1cccc(Cl)c1)c1ccncc12 [silmitasertib]
# In short: as §1
# [2] = compound: O=C1NC(=O)C(c2cnc3ccccn23)=C1c1cn2c3c(cc(F)cc13)CN(C(=O)N1CCCCC1)CC2
# In short: as §1
# entospletinib = compound: c1cn2cc(-c3ccc4cn[nH]c4c3)nc(Nc3ccc(N4CCOCC4)cc3)c2n1 [entospletinib]
# In short: as §1
Target,log2 fold change [1],log2 fold change (vorinostat),log2 fold change (silmitasertib),log2 fold change [2],log2 fold change (entospletinib)
IKBIP (UniProt Q70UQ0),inactive: -0.031,inactive: 0.166,inactive: -0.004,inactive: -0.042,inactive: -0.032
IMPACT (UniProt Q9P2X3),inactive: 0.019,inactive: -0.125,inactive: -0.096,inactive: -0.082,inactive: -0.027
ILKAP (UniProt Q9H0C8),inactive: -0.05,active: -0.288,inactive: 0.053,inactive: -0.024,inactive: -0.001
IKBIP isoform 4 (UniProt Q70UQ0),inactive: 0.014,inactive: 0.125,inactive: 0.035,inactive: -0.03,inactive: 0.009
ILF3 (UniProt Q12906),inactive: 0.081,inactive: -0.005,inactive: -0.259,inactive: -0.044,inactive: 0.144
IGF2BP1 (UniProt Q9NZI8),inactive: 0.029,inactive: -0.169,inactive: 0.075,inactive: 0.034,inactive: 0.029
IGHA1 (UniProt P01876),inactive: -0.035,inactive: 0.033,inactive: -0.01,inactive: 0.297,inactive: -0.108
IFT20 isoform 2 (UniProt Q8IY31),inactive: 0.083,inactive: 0.065,inactive: -0.061,inactive: 0,inactive: -0.15
IFT43 (UniProt Q96FT9),inactive: -0.198,inactive: 0.022,inactive: 0.249,inactive: 0.098,–
HYOU1 (UniProt J3QL06),inactive: 0.108,inactive: -0.037,inactive: 0.028,inactive: -0.032,inactive: 0.001
IDH3B (UniProt O43837),inactive: 0.034,inactive: 0.068,inactive: -0.013,inactive: -0.018,inactive: 0.004
INTS13 (UniProt Q9NVM9),inactive: 0.02,inactive: -0.166,inactive: 0.02,inactive: -0.027,inactive: -0.022
IMPA2 (UniProt O14732),inactive: -0.166,inactive: 0,inactive: 0.008,inactive: -0.062,inactive: -0.01
IL18R1 (UniProt Q13478),inactive: -0.246,inactive: 0.198,inactive: -0.33,inactive: 0.075,inactive: -0.084
HUS1 (UniProt O60921),inactive: 0.04,inactive: 0.029,inactive: -0.026,inactive: -0.025,inactive: 0.003
IGLL5 (UniProt B9A064),inactive: -0.302,inactive: 0.008,inactive: -0.077,inactive: 0.101,inactive: -0.118
IL18 (UniProt Q14116),inactive: 0.011,inactive: 0.043,inactive: 0.031,inactive: 0.034,inactive: -0.067
HSPG2 (UniProt P98160),inactive: -0.032,inactive: 0.088,inactive: -0.016,inactive: -0.022,inactive: -0.024
IMPDH1 isoform 6 (UniProt P20839),inactive: 0.029,active: -0.897,inactive: -0.003,inactive: 0.004,inactive: 0.023
HTRA2 (UniProt O43464),inactive: 0.01,inactive: 0.128,inactive: -0.032,inactive: -0.003,inactive: -0.041
IFRD1 (UniProt O00458),inactive: -0.143,inactive: 0.057,inactive: 0.084,inactive: -0.043,inactive: -0.001
HYPK (UniProt Q9NX55),inactive: -0.009,inactive: 0.16,inactive: -0.026,inactive: -0.031,inactive: -0.086
ICAM2 (UniProt P13598),inactive: -0.016,inactive: 0.148,inactive: -0.029,inactive: -0.021,inactive: -0.018
IDH3A (UniProt P50213),inactive: -0.023,inactive: 0.069,inactive: 0.008,inactive: -0.03,inactive: -0.044

# An excerpt from above, reduced to log2 fold change (vorinostat), log2 fold change [1] and log2 fold change (entospletinib).
Target | log2 fold change (vorinostat) | log2 fold change [1] | log2 fold change (entospletinib)
IMPACT (UniProt Q9P2X3) | inactive: -0.125 | inactive: 0.019 | inactive: -0.027
IGLL5 (UniProt B9A064) | inactive: 0.008 | inactive: -0.302 | inactive: -0.118

# Reference: the supplement of paper PMC10849652
